Among the data in PMC9684461, “RNA-controlled nucleocytoplasmic shuttling of mRNA decay factors regulates mRNA synthesis and a novel mRNA decay pathway” (Nature Communications, 2021) are binding values, retold here.

The chains behind the UniProt entries cited, without tags or fusion partners. Where a name states a change or a piece, a line headed by the entry shows the natural chain unless it says otherwise.
UniProt P22147: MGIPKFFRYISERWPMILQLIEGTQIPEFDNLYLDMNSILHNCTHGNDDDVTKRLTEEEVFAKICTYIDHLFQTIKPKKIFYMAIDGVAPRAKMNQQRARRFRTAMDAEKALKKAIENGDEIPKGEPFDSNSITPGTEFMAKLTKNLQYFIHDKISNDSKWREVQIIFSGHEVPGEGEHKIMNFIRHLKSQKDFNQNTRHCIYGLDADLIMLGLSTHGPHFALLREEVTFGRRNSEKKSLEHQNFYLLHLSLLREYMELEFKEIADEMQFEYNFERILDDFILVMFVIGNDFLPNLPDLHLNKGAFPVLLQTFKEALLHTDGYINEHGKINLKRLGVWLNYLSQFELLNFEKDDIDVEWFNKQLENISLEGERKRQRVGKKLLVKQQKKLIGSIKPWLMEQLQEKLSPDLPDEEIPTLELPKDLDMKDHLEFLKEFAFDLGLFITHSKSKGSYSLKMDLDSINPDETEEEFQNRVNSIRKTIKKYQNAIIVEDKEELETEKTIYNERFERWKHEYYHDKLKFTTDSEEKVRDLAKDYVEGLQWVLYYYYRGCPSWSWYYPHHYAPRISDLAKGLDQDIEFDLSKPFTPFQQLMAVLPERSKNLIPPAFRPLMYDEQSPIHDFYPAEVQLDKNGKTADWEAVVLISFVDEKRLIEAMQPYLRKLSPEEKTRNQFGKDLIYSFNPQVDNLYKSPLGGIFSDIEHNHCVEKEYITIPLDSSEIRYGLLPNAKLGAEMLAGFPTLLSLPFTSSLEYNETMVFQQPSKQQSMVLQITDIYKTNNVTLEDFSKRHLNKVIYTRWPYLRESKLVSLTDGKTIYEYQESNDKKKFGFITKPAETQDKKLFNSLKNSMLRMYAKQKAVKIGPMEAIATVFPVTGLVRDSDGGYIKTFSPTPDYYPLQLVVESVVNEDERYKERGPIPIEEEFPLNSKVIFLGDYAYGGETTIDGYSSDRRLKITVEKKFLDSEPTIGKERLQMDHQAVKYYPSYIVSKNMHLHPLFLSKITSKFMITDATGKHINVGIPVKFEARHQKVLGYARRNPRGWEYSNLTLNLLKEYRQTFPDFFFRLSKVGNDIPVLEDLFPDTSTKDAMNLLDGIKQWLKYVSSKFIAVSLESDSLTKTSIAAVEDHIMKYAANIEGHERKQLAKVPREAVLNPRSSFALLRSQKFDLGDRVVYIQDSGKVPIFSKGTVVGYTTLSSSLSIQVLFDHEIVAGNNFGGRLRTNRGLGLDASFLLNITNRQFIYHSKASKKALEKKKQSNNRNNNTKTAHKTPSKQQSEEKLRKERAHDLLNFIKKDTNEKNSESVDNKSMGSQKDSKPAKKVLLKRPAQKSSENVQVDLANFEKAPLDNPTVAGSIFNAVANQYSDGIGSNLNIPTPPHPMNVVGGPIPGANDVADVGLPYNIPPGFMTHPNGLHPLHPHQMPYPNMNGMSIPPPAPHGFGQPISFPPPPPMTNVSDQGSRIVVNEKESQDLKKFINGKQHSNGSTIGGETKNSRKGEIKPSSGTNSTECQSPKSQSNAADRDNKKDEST

Sequences and labels used below:
B1: recombinant 6xHis-tagged Kap120 (natural protein, S. cerevisiae, UniProt Q02932 1-1032, looked up)
chain: MASSLNELNLVQVLEQASNPQHIRSDVQKLAEQQLRQWETQAGFHYLLQSIYLNLSNSLQIRWLAVIQFKNGVDKYWRSTRINAIPKDEKASIRGRLFEMIDEQNNQLCIQNAQASARIARLDFPVEWPTLFEDLENLLNDEIIRKDSVKIYNILMHINQIVKVLGTARIGRCRPAMQSKVPLILPLIVRIYLQSFEEWTTSSNLNYEDLSSLQVSYLALKVLRRIICEGYDRPQTDQSVCDFIKLSVSHFEMLISNHENFKKFDIYEKFIKCLGKLYFNLVTGSPANFILLPCSTQILITYTRLIFDKAPKVYRENSDVTGDFWEQTAIRGLLILKRVINFIHKKGAITLKARSDKLTIDASINKINTEFLNENLITRLVDTLMEWYLRLRPTELENWFMDPEEWINEQMATSYEYQIRPCAENVFQDLMNTFSELLVPYLLKKIENDASKLSNSLDDFLRKDAIYASFQLSASAVSEMVDFDRLLIQVFLPEATNTNISGDELRIIRRRVALIINEWSTVKCSEESKSLCYKLFTNFLTDEDDKVVLLTTVQTVRTMVDDWNFNKDTFQPFLTENVHLLLRKILPSVSLTETRLYVLNTLSDIIIQTKPLISRDLLVEILQIIPNLWEIATNNASEAILANALLRLLRNLVSSLGSQSHLTWDIAIPVVALACDPSSMQYQLLSEDGYELWGMLLQNFSSHDQEFDDKFVELVPFLKYGIETHTEILPTLLEIIKSYALILNPVDFFSNNTFQDIFKQMSKYLLKLREDSFQLVLEIWEILILSNESDYENLLLQKFYETGVLSALFDAIFLEEAPSSYLCSQIIQIIARISYVNPDALMTFLATYHDNLPTSNENARMPESIRKIVSKDQTYDSVVNKLLTGWIVCFRDIFDPKFKKVHILGISSLLRTGLVPILTEFSSIASLWIEMLEEINETNRGDCEKYHLNDIVTEQSIAFHPLTAEQLRYHQLCKNNDPVHNISLKDFISQSMEYLESHLGVERYQEFLKTINPSLLENLQMFLSIQPQEARP
notes: karyopherin (importin) Kap120 of S. cerevisiae; also called Kap120-6xHis; Kap120-His; source: E. coli, IPTG induced, purified (Ni-NTA)

In assay [1] the target is B1. Kind of assay: pull-down; purified Kap120-6xHis mixed with purified Xrn1-FLAG (WT or mutant), 1 h at 4 °C in a rotator; complex captured on Ni-NTA, Western blotting; Xrn1-FLAG intensity normalized to Kap120; both purified.
Assay [2] addresses FLAG-tagged Xrn1^ΔNLS2 (S. cerevisiae) (UniProt P22147). Kind of assay: co-IP; purified Kap120-6xHis and Xrn1-FLAG with mutations in the indicated NLS, with EDTA (2 mM) and increasing amounts of 40 nt RNA; complexes captured by anti-FLAG antibodies; both purified.
Assay [3] has as its target FLAG-tagged Xrn1^ΔNLS1 (S. cerevisiae) (UniProt P22147). Described as above.

These are yes or no findings as the source states them, for the method shown. A result given as binding can be weak or reduced; the word gives no strength. Where a sequence is shown, tags or fusion partners need not be part of it. For some of these results: Binding seen in cells or lysates may run through a third protein.

As for “FLAG-tagged Xrn1^ΔNLS1 (from UniProt P22147) (enzyme)”, in assay [1], the binding result was “binds”.
As for “FLAG-tagged Xrn1^ΔNLS2 (from UniProt P22147) (enzyme)”, in assay [1], the binding result was “binds”.
Regarding B1, the binding entry in assay [2] and in assay [3] was “binds” in each case.
